Measured values published in patent publication US20040096455A1, “Transdermal vaccine delivery device having coated microprotrusions” (priority 2002, published 2004).

Biological target: T1, ovalbumin (Gallus gallus, UniProt P01012)
T1 sequence (P01012 1-386): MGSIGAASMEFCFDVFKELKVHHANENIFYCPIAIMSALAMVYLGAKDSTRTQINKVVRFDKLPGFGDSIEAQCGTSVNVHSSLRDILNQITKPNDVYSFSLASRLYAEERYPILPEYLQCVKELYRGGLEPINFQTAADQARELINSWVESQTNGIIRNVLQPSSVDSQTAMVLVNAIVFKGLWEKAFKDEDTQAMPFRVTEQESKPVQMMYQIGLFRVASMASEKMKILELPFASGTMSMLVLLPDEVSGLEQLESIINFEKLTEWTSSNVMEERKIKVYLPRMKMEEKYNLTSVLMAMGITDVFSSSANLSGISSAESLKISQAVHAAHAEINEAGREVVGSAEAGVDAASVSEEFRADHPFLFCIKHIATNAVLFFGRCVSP
Test: Solubilization of 0.5 wt % ovalbumin solution by surfactants
Assay type: physicochemical
Description: Other surfactants and concentrations were test against a solution 0.5 wt % ovalbumin.

CCCCCCCCCCCCCCCC[n+]1ccccc1 [Cetylpyridinium chloride]
complete solubilization of ovalbumin solution (Surfactant Concentration 0.0085 M): −
complete solubilization of ovalbumin solution (Surfactant Concentration 0.017 M): −
complete solubilization of ovalbumin solution (Surfactant Concentration 0.035 M): −
complete solubilization of ovalbumin solution (Surfactant Concentration 0.052 M): −
complete solubilization of ovalbumin solution (Surfactant Concentration 0.069 M): +
